# The whole screen tested about 1,200 compounds, of which fewer than 10 were called active. Calls come from the whole dose curve; as a rule, active = well fitted curve in the direction sought with a large enough effect; inconclusive = small, poorly fitted or top-dose-only effect, or another doubt; inactive = no such curve, though single readings can be large or run the other way. Some of the results follow.
# Assay: Confirmatory qHTS assay for inhibitors of Activation Induced Cytidine Deaminase (AID): UDG signals; note: 0% is about no effect
# Conditions: UDG coupled enzyme activity counter-screen; at 115 µM (top of the series) unless noted
# Summary of the method: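 UDG readout, a counterscreen: AID (1 uM, 4/3x) plus UDG (2 U/mL, 4/3x) preincubated 10 min with compound (7.32 nM - 114 uM final), then 4 h with DJC20/DJC23 substrates at room temperature; NaOH added, fluorescence read at 560/665 nm.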
row,Compound,"activity change, negative = inhibition"
1,COc1ccccc1CNC(=O)C(C)n1c(=O)cc(-c2ccccc2)c2c(C)nn(C)c21 (centres undefined),inactive: -9.61%
2,CCOC(=O)c1cccc(NC(=O)c2oc3c(c2C)-c2nn(CC)cc2CC3)c1,inactive: -7.26%
3,Cc1c(Cl)cccc1-n1ncc(C(=O)NC2CCCCC2)c1C1CCN(C(=O)OC(C)(C)C)CC1,inactive: 11.2%
4,COc1ccc(OC)c(Nc2sc(C(=O)c3ccccc3)c(N)c2S(=O)(=O)c2ccccc2)c1,inactive: -9.69%
5,CC(C)NC[C@H](O)c1ccc(O)c(O)c1,inactive: -5.78%
6,Cc1cc(C)cc(C(=O)NCCc2sc(-c3ccc(F)cc3)nc2C)c1,inactive: -6.85%
7,CCCCN(CC)CCCNC(=O)c1cn(CC)c2ccc(S(=O)(=O)N3CCc4ccccc4C3)cc2c1=O,inactive: -12.6%
8,Cc1cccc(OCCCn2c(CCNC(=O)C3CCCCC3)nc3ccccc32)c1,inactive: -11.7%
9,CS(=O)(=O)N(Cc1ccccc1)c1ccc(C(=O)Nc2ccc(Cl)cc2)cc1,inactive: 2.66%
10,Cc1cccc(Nc2nnc(-c3ccc(C)c(S(=O)(=O)N4CCN(C)CC4)c3)c3ccccc23)c1,inactive: -2.91%
11,CCOC(=O)c1cnc2c(ccc3ccccc32)c1Nc1ccc(N(C)C)cc1,inactive: -13.6%
12,CCn1cc2c(n1)-c1c(oc(C(=O)Nc3ccc(Br)cc3F)c1C)CC2,inactive: -15.5%
13,Cc1ccc(N(CC(=O)N2CCN(c3cc(C)ccc3C)CC2)S(=O)(=O)c2c(C)nn(C)c2C)cc1,inactive: -16.1%
14,Cc1ccc(N(C)C(=O)c2sc3nc4n(c(=O)c3c2C)CCCC4)cc1C,inactive: -1.73%
15,CCCCN(CC)C(=O)CSc1nc2n[nH]c(C)c2c(=N)n1-c1ccc(CC)cc1,inactive: -6.73%
16,CCOc1ccc(CNC(=O)c2oc3c(c2C)-c2nn(Cc4cccc(Cl)c4)cc2CC3)cc1,inactive: -11.6%
17,O=C(c1ccc2c(c1)N(Cc1ccc(Cl)cc1)C(=O)c1ccccc1S2(=O)=O)N1CCCC1,inactive: -2.92%
18,COc1ccc(-c2nn3c(-c4ccccc4C)nnc3c3ccccc23)cc1,inactive: -9.22%
19,CCN(CC)CCNC(=O)c1ccc2c(=O)n3nc(Nc4ccccc4OC)sc3nc2c1,inactive: 7.61%
20,COc1ccc(NC(=O)CSc2nc3nc(C)c(Cc4ccccc4)c(C)n3n2)cc1OC,inactive: -11.5%

row,Compound,"activity change, negative = inhibition"
1,Cc1ccc(CN(Cc2ccco2)C(=O)c2ccc(OCC(C)C)cc2)cc1,inactive: 0.221%
2,Cc1ccccc1OCC(=O)Nc1cccc(C(=O)OCc2cc(=O)n3c(C)csc3n2)c1,inactive: 1.99%
3,Cc1ccc(S(=O)(=O)Cc2ccc(C(=O)N3CCN(c4cccc(Cl)c4)CC3)o2)cc1,inactive: -15.2%
4,CCCn1c2ccccc2c2nnc(SCC(=O)Nc3cccc(C(C)=O)c3)nc21,inactive: 3.62%
5,CCOc1ccc(-c2nn(-c3ccccc3)cc2C2NC(=O)NC(C)=C2C(=O)OC(C)C)cc1 (centres undefined),inactive: -7.59%
6,CSc1nc(Nc2ccc(F)cc2)cc(-c2ccccc2)n1,inactive: -6.66%
7,Cc1ccc(CNC(=O)Nc2cc(C(=O)NCc3ccc(C(C)C)cc3)ccc2N2CCCC2)cc1,inactive: -1.44%
8,Cc1ccc2cccc(NC(=O)c3ccc(OC(C)C)cc3)c2n1,inactive: -2.17%
9,CCC(=O)Oc1c(Sc2ccc(Cl)cc2)c(C)nn1-c1ccccc1,inactive: 15.4%
10,COC(=O)c1ccc(CSc2nnc3ccc4ccccc4n23)cc1,inactive: 1.41%
11,COc1ccc2c(c1)Cc1sc(NC(=O)c3cccc(C)c3)nc1-2,inactive: -1.75%
12,CCOC(=O)CSc1nnc2n(-c3ccccc3)c(=O)c3c4c(sc3n12)CC(C(C)(C)C)CC4 (centres undefined),inactive: 3.24%
13,CC(=O)NCCNc1nc2c(S(=O)(=O)c3ccc(C)c(C)c3)nnn2c2ccc(Cl)cc12,inactive: -4.07%
14,Cc1ccc(C(C)C)c(OCC(=O)N2CCC(c3nc4ccccc4o3)CC2)c1,inactive: -1.67%
15,Cc1nn2c(=O)cc(COC(=O)c3ccc(NC(=O)C4CCCCC4)cc3)nc2s1,inactive: 4.13%
16,Cc1sc2ncn(CC(=O)N3CCN(c4ccc(F)cc4)CC3)c(=O)c2c1S(=O)(=O)N1CCC(C)CC1,inactive: -8.24%
17,CCOc1ccccc1NC(=O)CN1C(=O)CC(c2ccc(OC)c(OC)c2)Sc2ccccc21 (centres undefined),inactive: -2.93%
18,CCN1C(=O)c2ccccc2S(=O)c2ccc(C(=O)N3CCN(c4cccc(C)c4)C(C)C3)cc21 (centres undefined),inactive: -10.4%
19,CCc1ccc(CN2CCc3nc(Nc4ccccc4)ncc3C2)cc1,inactive: -2.24%
20,CCc1ccccc1Nc1nn2c(=O)c3ccc(C(=O)NC(C)c4ccccc4)cc3nc2s1 (centres undefined),inactive: -6.22%

# Four neighbouring compounds from above, quoted:
row,Compound,"activity change, negative = inhibition"
14,Cc1ccc(C(C)C)c(OCC(=O)N2CCC(c3nc4ccccc4o3)CC2)c1,inactive: -1.67%
15,Cc1nn2c(=O)cc(COC(=O)c3ccc(NC(=O)C4CCCCC4)cc3)nc2s1,inactive: 4.13%
16,Cc1sc2ncn(CC(=O)N3CCN(c4ccc(F)cc4)CC3)c(=O)c2c1S(=O)(=O)N1CCC(C)CC1,inactive: -8.24%
17,CCOc1ccccc1NC(=O)CN1C(=O)CC(c2ccc(OC)c(OC)c2)Sc2ccccc21 (centres undefined),inactive: -2.93%

# Following part

row,Compound,"activity change, negative = inhibition"
1,COc1ccc(-n2nc3c(N4CCCC(C(=O)NCc5ccc(C)cc5)C4)nnc(C)c3c2C)cc1 (centres undefined),inactive: -3.07%
2,CCCNC(=O)c1cnn2c(C)c(Cc3c(C)cc(C)cc3C)c(C)nc12,inactive: -0.105%
3,CCc1nn(CCCC(=O)N2CCN(c3cc(Cl)ccc3C)CC2)c(=O)c2cc3occc3n12,inactive: -7.4%
4,CCCN1CCN(CCCNC(=O)c2cc3c(Cl)nc4ccccc4c3s2)CC1,inactive: 12.3%
5,CCCCC1CCC(C(=O)N2CC(=O)Nc3ccc(F)cc3C2c2ccc(F)cc2)CC1 (centres undefined),inactive: 1.26%
6,CCc1ccc(NC(=O)c2cnn(-c3c(C)cccc3C)c2C2CCN(C(=O)OC(C)(C)C)CC2)cc1,inactive: -11.8%
7,CN1CCN(c2nc3c(S(=O)(=O)c4ccc(Cl)cc4)nnn3c3ccsc23)CC1,inactive: -6.47%
8,Cc1cc2oc(=O)c(CC(=O)O)c(C)c2c2occ(-c3ccccc3)c12,inactive: 2.29%
9,Cc1nn2c(C)c(C(=O)NCCc3ccccc3)cnc2c1-c1ccccc1,inactive: -20.1%
10,COc1cc(C(c2c(C)[nH][nH]c2=O)c2c(C)[nH][nH]c2=O)ccc1OC(=O)c1ccccc1OC,inactive: -5.55%
11,CC(C)(C)OC(=O)N1CCC(c2c(C(=O)N3CCN(Cc4ccccc4)CC3)cnn2-c2cccc(Cl)c2)CC1,inactive: -11.8%
12,COc1ccc(-c2nc(Cn3c(SCc4ccccc4F)nc4cccnc43)c(C)o2)cc1,inactive: -15%
13,CCn1cc(S(=O)(=O)c2ccc(Cl)cc2)c(=O)c2cc(F)c(N3CCOCC3)cc21,inactive: 8.08%
14,COc1ccc(NC(=O)CSc2nc3nc(C)c(Cc4ccc(C)cc4)c(C)n3n2)cc1OC,inactive: -9.19%
15,CCc1ccc(OCCCSc2nc(-c3ccc(C(C)(C)C)cc3)nc3cc(=O)[nH]n23)cc1,inactive: -5.76%
16,Cc1ccc(-c2cn3c(n2)sc2cc(C(=O)NCCCN4CCCCC4)ccc23)cc1,inactive: -2.1%
17,CC(C)Cc1ccc(S(=O)(=O)N2CCC(c3ccncc3)CC2)cc1,inactive: -3.44%
18,CCCN(Cc1cccs1)C(=O)Nc1cc(Cl)ccc1C,inactive: -4.21%
19,COc1cc2c(=O)c(C(=O)c3ccc(C)c(C)c3)cn(Cc3ccccc3F)c2cc1OC,inactive: -2.14%

# Reference: PubChem BioAssay AID1347431 (National Center for Advancing Translational Sciences (NCATS), 2020)
